Test results as given in paper PMC5725494, “Cell cycle-dependent phosphorylation regulates RECQL4 pathway choice and ubiquitination in DNA double-strand break repair”.
These are yes or no findings as the source states them, for the method shown. In cells and extracts the contact can be indirect. Some results given as binding are weak or reduced against the parent protein; the word gives no strength. Tags and fused reporters may be left off the sequences shown.

Protein sequences, listed by entry. Tags and fused reporters are not part of them.
UniProt P12956: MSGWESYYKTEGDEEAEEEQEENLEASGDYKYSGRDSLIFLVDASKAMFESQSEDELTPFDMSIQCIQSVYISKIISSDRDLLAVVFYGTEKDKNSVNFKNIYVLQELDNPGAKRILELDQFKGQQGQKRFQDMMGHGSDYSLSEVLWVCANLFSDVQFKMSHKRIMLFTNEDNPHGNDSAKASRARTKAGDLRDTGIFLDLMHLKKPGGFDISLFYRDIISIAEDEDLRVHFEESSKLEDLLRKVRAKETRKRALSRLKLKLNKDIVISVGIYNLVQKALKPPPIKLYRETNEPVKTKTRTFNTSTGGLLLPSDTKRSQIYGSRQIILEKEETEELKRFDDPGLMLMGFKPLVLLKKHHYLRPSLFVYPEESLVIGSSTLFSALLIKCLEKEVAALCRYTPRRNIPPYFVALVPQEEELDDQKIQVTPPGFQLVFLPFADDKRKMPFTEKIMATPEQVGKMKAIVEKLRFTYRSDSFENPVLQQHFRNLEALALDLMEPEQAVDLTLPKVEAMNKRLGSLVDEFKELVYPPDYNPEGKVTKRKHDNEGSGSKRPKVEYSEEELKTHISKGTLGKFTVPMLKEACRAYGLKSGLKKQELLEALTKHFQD

Target: T1, GFP-tagged RECQL4 (wild type) (human) (UniProt O94761)
T1 sequence: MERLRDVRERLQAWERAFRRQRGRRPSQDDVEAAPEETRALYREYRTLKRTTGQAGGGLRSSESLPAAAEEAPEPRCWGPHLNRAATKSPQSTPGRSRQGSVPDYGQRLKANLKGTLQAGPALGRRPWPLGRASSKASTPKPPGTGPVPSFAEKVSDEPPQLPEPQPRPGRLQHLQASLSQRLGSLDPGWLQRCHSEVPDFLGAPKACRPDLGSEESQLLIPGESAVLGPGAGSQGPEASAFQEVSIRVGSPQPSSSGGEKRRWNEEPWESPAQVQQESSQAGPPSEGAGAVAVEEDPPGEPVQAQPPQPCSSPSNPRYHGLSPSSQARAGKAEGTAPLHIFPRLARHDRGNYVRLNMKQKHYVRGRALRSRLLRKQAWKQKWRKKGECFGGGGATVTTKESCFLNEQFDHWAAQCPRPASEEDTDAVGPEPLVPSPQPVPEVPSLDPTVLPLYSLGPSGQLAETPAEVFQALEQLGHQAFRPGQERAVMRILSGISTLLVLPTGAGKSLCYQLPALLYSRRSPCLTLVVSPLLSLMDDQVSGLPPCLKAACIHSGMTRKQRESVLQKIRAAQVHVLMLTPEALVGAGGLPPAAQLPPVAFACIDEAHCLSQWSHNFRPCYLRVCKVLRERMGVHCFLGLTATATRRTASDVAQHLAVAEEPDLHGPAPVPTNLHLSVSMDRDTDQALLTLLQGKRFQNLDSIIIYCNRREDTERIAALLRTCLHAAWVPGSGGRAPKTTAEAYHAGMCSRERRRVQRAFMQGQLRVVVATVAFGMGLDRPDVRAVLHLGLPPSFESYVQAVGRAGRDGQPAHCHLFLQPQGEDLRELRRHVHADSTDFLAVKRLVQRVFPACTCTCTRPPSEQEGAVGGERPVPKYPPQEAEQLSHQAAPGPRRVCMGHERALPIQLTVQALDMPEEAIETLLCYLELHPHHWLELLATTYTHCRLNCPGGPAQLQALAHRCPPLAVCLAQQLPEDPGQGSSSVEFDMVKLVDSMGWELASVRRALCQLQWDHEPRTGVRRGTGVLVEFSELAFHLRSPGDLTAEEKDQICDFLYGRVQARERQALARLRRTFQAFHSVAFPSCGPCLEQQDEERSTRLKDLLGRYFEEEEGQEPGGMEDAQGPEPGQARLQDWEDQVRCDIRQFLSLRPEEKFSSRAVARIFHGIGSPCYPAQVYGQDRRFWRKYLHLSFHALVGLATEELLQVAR
Experiment: co-IP; GFP-TRAP beads on lysate (2 mg protein) of HEK293T cells expressing GFP-tagged RECQL4 or mutants, overnight at 4 °C; lysis buffer 2 (40 mM Tris-HCl pH 7.4, 100 mM NaCl, 2 mM MgCl2, 0.2% NP-40, 0.3% Triton) with Benzonase; cells irradiated with 10 Gy; asynchronous, or synchronised in G1 with aphidicolin and released 10 h for S/G2; Western blotting

## Ku70 (from UniProt P12956 1-609)
  binding: binds
